The exact form of at least one protein or probe is not confirmed. Where a protein sequence is shown, tags need not be part of it.
Biological target: T1, Phi29 DNA polymerase-A411C/Q560C (Bacillus subtilis phage phi29) (UniProt P03680)
T1 sequence: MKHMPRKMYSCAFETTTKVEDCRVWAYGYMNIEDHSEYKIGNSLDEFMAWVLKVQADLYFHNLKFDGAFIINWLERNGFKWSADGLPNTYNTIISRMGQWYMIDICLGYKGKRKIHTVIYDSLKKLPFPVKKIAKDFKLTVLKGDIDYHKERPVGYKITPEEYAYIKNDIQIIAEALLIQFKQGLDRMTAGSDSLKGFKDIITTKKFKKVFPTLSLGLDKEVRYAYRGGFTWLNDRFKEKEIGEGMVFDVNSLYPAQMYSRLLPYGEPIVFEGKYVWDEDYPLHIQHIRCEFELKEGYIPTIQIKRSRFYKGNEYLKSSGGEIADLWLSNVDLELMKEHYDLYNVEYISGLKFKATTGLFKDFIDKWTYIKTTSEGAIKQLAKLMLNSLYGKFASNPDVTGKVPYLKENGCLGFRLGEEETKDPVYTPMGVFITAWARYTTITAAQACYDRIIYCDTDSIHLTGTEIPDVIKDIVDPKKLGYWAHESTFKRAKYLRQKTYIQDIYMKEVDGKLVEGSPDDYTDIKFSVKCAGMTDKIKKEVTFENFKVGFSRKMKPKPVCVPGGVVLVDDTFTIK
Test: EMSA
Settings: 5' phosphate; four iSpC3 spacers between SEQ 44 and SEQ 45; native TBE PAGE, band E; 50 mM Tris pH 8, 20 mM (NH4)2SO4, 10 mM MgCl2, 4% glycerol, 1:1 at 400 nM, room temperature; purified recombinant protein; protein details: closed with TMAD; folded or branched DNA

## GGTTAAACACCCAAGCAGACGCCTTTTTTTTTTCGTCCTGTCGCTGTGTCTCGGCGAGACACAGCGACAGGACG [polymerase DNA hairpin strand (Example 7)]
  binding result: binds
